Molecules are shown by their SMILES. The list shows only some results of the screen, not a fair sample: it gathers tests that were run many times, whatever their T/C, doses with no T/C, and many T/C values between a quarter and a half above the control. Further doses and runs are listed elsewhere. T/C gives the treated animals as a percentage of the vehicle group. Some doses have a count of surviving animals in place of a T/C: the source files T/C as zero there, which appears to mark a toxic dose or a test without result, not a measured value. Some survivor counts are full or nearly so, which does not show that the dose was tolerated: the source hardly ever lists a survival T/C far under the control, and the zero likely stands for such cases as well. Survivors were counted at the toxicity check, usually on the fifth day, unless a day is given; later deaths do not show. Schedules are NCI's codes, read here as Q, the interval in days (D) or hours (H), X, the number of doses. Some entries hold several experiments; their values stand side by side, smallest first. Where survival is the endpoint, the PubChem record calls one and a half times the control and up active, and a quarter to a half above the control has no call in these data; cut-offs in other NCI protocols can differ. Some T/C values carry the count of animals alive at the toxicity check (mostly the fifth day); where none is given, no animal had died by that day.

The subject of the assay is BDF1 mice, Lewis lung carcinoma iv, survival T/C. The assay can be described thus: NCI In Vivo Anticancer Drug Screen. Data for tumor model Lewis Lung Carcinoma (intravenous) in B6D2F1 (BDF1) mice. The conditions noted are these: T/C endpoint: median survival time, higher T/C = longer survival. As to the method:
The antitumor activity of compounds was measured in mice bearing transplantable tumors. Survival or tumor size were measured and the results are expressed as the measurement made in the treated group (T) divided by the measurement made in the vehicle treated control group (C). The tumor model used in this assay is Lewis Lung Carcinoma (intravenous) in B6D2F1 (BDF1) mice

The mark [1] stands for this setting: dose: 200.0 mg/kg/injection, schedule: Q01DX009 (ip), vehicle: saline with Tween-80.
Setting [2] is: dose: 400.0 mg/kg/injection, schedule: Q01DX009 (ip), vehicle: saline with Tween-80.
Where [3] appears, read: dose: 10.0 mg/kg/injection, schedule: Q04DX003 (ip), vehicle: saline.

On to `O=NN(CCCl)C(=O)NCCCl`, for which, for the setting “dose: 24.0 mg/kg/injection, schedule: Q01DX009 (ip), vehicle: Klucel (hydroxypropylcellulose) (HPC)”, the survivor count was 10 of 10. In addition, the T/C runs as follows: (dose: 30.0 mg/kg/injection, schedule: Q01DX001 (ip), vehicle: saline + alcohol, evaluated on day 18) 139 % of control; (dose: 30.0 mg/kg/injection, schedule: Q01DX001 (ip), vehicle: saline + alcohol, evaluated on day 60) 139 % of control.

Consider `Nc1ccnc(=O)[nH]1`, for which the T/C reads like this: (dose: 64.0 mg/kg/injection, schedule: Q01DX009 (ip), vehicle: saline with Tween-80) 134 % of control; (dose: 128.0 mg/kg/injection, schedule: Q01DX009 (ip), vehicle: saline with Tween-80) 149 % of control.

For `COc1cccc2c1C(=O)c1c(O)c3c(c(O)c1C2=O)CC(O)(/C(C)=N/NC(=O)CCC(=O)N/N=C(\C)C1(O)Cc2c(O)c4c(c(O)c2C(OC2CC(N)C(O)C(C)O2)C1)C(=O)c1c(OC)cccc1C4=O)CC3OC1CC(N)C(O)C(C)O1` (stereo not given), the survivor count (dose: 24.0 mg/kg/injection, schedule: Q01DX009 (ip), vehicle: water) is listed as 10 of 10.

Take `c1ccc2c3c(ccc2c1)Sc1ccc2ccccc2c1N3`: under setting [1], the T/C is 129 % of control [9 of 10 alive].

`CC(=O)NC(C=O)OCC=O` (stereo not given): under “dose: 200.0 mg/kg/injection, schedule: Q01DX009 (ip), vehicle: water”, the survivor count is 8 of 10.

With `COC1CC(CC2CCC(C)C(C(C)C(=O)O)O2)OC2(OC(C)(C3CCC(C)(C4OC(C5OC(O)(CO)C(C)CC5C)CC4C)O3)CC2C)C1C` (stereo not given), the T/C (dose: 2.5 mg/kg/injection, schedule: Q01DX009 (ip), vehicle: Klucel (hydroxypropylcellulose) (HPC)) was 127 % of control.

For `CC1=C(/C=C/C(C)=C/C=C/C(C)=C/C(=O)O)C(C)(C)CCC1`, the T/C (dose: 64.0 mg/kg/injection, schedule: Q01DX005 (ip), vehicle: saline with Tween-80) is 140 % of control.

As for `Nc1ncn(C2OC(CO)C(O)C2O)c(=O)n1` (stereo not given), the T/C reads like this: (dose: 3.0 mg/kg/injection, schedule: Q01DX009 (ip), vehicle: saline) 139 and 149 % of control; (dose: 50.0 mg/kg/injection, schedule: Q01DX009 (ip), vehicle: suspension in saline) 132 % of control; (dose: 100.0 mg/kg/injection, schedule: Q01DX009 (ip), vehicle: suspension in saline) 139 % of control; (dose: 200.0 mg/kg/injection, schedule: Q01DX009 (ip), vehicle: suspension in saline) 137 % of control. For the same molecule, the survivor count is 9 of 10 and 10 of 10 (dose: 6.0 mg/kg/injection, schedule: Q01DX009 (ip), vehicle: saline); 9 of 10 and 10 of 10 (dose: 12.0 mg/kg/injection, schedule: Q01DX009 (ip), vehicle: saline).

For the molecule `CC(C)C(N)C(=O)Nc1nncs1` (stereo not given), the survivor count (dose: 400.0 mg/kg/injection, schedule: Q01DX009 (ip), vehicle: saline) is 8 of 10.

Consider `CC(=O)OCC1OC(n2cc(CBr)nn2)C(OC(C)=O)C(OC(C)=O)C1OC(C)=O` (stereo not given), for which the survivor count (dose: 100.0 mg/kg/injection, schedule: Q01DX009 (ip), vehicle: Klucel (hydroxypropylcellulose) (HPC)) is listed as 6 of 9.

With `C[C@@H]1CN(C(=O)CCOS(C)(=O)=O)[C@@H](C)CN1C(=O)CCOS(C)(=O)=O`, the survivor count under setting [1] is given as 10 of 10.

Consider `Cc1cn(C2CC(O)C(CO)O2)c(=O)[nH]c1=O` (stereo not given), for which the T/C (dose: 25.0 mg/kg/injection, schedule: Q01DX009 (ip), vehicle: saline with Tween-80) was 147 % of control. In addition, the survivor count under setting [2] is 10 of 10.

With `N=[N+]=CC(=O)OCC(N)C(=O)O` (stereo not given), the survivor count (dose: 25.0 mg/kg/injection, schedule: Q01DX009 (ip), vehicle: saline) is listed as 10 of 10.

As for `CN(N=O)C(=O)N[C@@H](C=O)[C@@H](O)[C@H](O)[C@H](O)CO`, under “dose: 50.0 mg/kg/injection, schedule: Q01DX009 (ip), vehicle: citric acid”, the T/C is 127 % of control. Besides, the survivor count is 9 of 9 (dose: 200.0 mg/kg/injection, schedule: Q01DX009 (ip), vehicle: citric acid); 10 of 10 (dose: 256.0 mg/kg/injection, schedule: Q01DX009 (ip), vehicle: other); 0 of 10 (dose: 400.0 mg/kg/injection, schedule: Q01DX009 (ip), vehicle: citric acid); 10 of 10 (dose: 512.0 mg/kg/injection, schedule: Q01DX009 (ip), vehicle: other).

For `N[C@@H](Cc1ccc(N(CCCl)CCCl)cc1)C(=O)O`, the T/C is, setting by setting: (dose: 4.0 mg/kg/injection, schedule: Q01DX009 (ip), vehicle: saline) 148 % of control; (dose: 4.9 mg/kg/injection, schedule: Q04DX003 (ip), vehicle: saline) 132 % of control; under setting [3], 127 % of control. Also, the survivor count is, setting by setting: (dose: 8.0 mg/kg/injection, schedule: Q01DX009 (ip), vehicle: saline) 8 of 10 and 9 of 10; under setting [3], 8 of 8; (dose: 14.3 mg/kg/injection, schedule: Q04DX003 (ip), vehicle: saline) 8 of 8; (dose: 15.0 mg/kg/injection, schedule: Q04DX003 (ip), vehicle: saline) 8 of 8; (dose: 20.4 mg/kg/injection, schedule: Q04DX003 (ip), vehicle: saline) 5 of 8.

`COC1/C=C\C=C(/C)C(=O)NC2=CC(=O)C=C(C2=O)C(OC)C(C)CC(OC)C(OC)C(C)/C=C(/C)C1OC(N)=O` (stereo not given): the survivor count is 10 of 10 (dose: 3.0 mg/kg/injection, schedule: Q01DX009 (ip), vehicle: Klucel (hydroxypropylcellulose) (HPC)) and 1 of 10 (dose: 6.0 mg/kg/injection, schedule: Q01DX009 (ip), vehicle: Klucel (hydroxypropylcellulose) (HPC)).

As to `O=C1N=C(Oc2ccccc2)SC1=O`, the survivor count is, setting by setting: (dose: 100.0 mg/kg/injection, schedule: Q01DX009 (ip), vehicle: saline with Tween-80) 3 of 10; under setting [1], 0 of 10; under setting [2], 0 of 10.

The values are drawn from PubChem BioAssay AID274 (DTP/NCI, 2004).
